The record followed here is publication PMC8292354, “Molecular insights into the endoperoxide formation by Fe(II)/α-KG-dependent oxygenase NvfI” (Nature Communications, 2021).

Results are given in words; binding and its absence hold for the method and conditions named.

This experiment deals with NvfI from Aspergillus novofumigatus IBT 16806 (Aspergillus novofumigatus IBT 16806). Briefly: SEC; gel-filtration analysis of purified NvfI; apparent molecular weight 34 kDa; both purified. For orientation: SEC sorts molecules by how far they enter the pores of the column.

B1: NvfI from Aspergillus novofumigatus IBT 16806 (enzyme, UniProt A0A2I1BSX0 1-278)
chain: MVGSRTWCESEMLFVQPDAGTKEELYYRVTPKPGQTQANFNWTPHKVRFHDARPQRDSFDLNTHGFTFVEDAISPQLIERIRADDTAAVEGDYFASVAALVKRVTGADHVVCFSPYTRKENSEKGIFGQPARTVHCDHTPAAAIELTHKLCGEDAVRLLQSRFRAFSVWRPLVEPVLDWPLAVVDGRTIAPDDLHPVHWLRYEKKDTEPPFQLSFSETQKWYYLSRQRSDEVSIVKNYDSEVVPSPRSAHCAFKHPFVPKDAPPRESIDVRCLVFGGR
Take B1: the binding result is given as “no binding”.
